Test results as given in article PMC13284460, “HPV16 E2 protein possesses intrinsic helicase activity and sterically hinders E1 function through direct interaction”.
Results are given in words; binding and its absence hold for the method and conditions named. Some results given as binding are weak or reduced against the parent protein; the word gives no strength. Sequences can lack the tags named with a protein.

Protein sequences, listed by entry. Tags and fused reporters are not part of them. Residues count along the entry.
UniProt P03120, residues 1-245: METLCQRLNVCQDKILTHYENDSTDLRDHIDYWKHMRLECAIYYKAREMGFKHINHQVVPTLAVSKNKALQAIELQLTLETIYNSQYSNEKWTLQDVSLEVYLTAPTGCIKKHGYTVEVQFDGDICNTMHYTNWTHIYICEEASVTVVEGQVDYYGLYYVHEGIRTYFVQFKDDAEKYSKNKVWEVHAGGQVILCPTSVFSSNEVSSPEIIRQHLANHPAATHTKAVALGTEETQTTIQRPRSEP

Target: T1, HPV16 E1 protein (E1-Myc) (HPV16 (human papillomavirus type 16)) (UniProt P03114)
T1 sequence: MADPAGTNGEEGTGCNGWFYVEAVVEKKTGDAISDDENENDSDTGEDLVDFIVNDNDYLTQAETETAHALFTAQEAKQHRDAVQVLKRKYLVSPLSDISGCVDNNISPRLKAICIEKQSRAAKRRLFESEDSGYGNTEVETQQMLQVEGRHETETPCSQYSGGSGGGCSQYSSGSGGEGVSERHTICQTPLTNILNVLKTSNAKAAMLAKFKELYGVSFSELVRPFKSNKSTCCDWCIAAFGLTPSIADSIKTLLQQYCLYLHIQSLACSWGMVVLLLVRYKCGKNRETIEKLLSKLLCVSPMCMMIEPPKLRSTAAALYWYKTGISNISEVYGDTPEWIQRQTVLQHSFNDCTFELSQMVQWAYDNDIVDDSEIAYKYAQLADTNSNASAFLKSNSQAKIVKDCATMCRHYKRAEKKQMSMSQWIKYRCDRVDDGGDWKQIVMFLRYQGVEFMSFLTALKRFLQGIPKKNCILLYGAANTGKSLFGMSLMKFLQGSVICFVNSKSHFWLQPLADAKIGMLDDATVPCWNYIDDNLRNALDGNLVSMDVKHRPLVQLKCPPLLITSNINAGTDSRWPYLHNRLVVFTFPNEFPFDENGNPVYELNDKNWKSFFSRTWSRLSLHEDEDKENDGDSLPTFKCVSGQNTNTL
Assay: co-IP; purified E1-Myc and HA-tagged E2 (or GFP-HA) mixed at 1:1 molar ratio in 0.5% Triton X-100 in PBS, 4 °C, 2 h; precipitated with MYC antibody and Protein A/G beads; washed with 20 mM Tris-HCl, 300 mM NaCl, 0.1 mM EDTA, pH 8.0; Western blot with anti-Myc or anti-HA; both purified

With “HPV16 E2 N-terminal truncation (residues 1-245) (from UniProt P03120 1-245) (domain or fragment)” the binding was “binds”.
